The supplement of paper PMC3682954
Where a name gives a salt, the structure may show the parent alone. ± gives the standard deviation of the averaged measurements. The list shows a part of the results. Most values come without repeats; read them as rough.

System: RAW 264.7
Assay: HMGB1-induced TNF-alpha production relative to HMGB1-stimulated control; higher = more TNF-alpha secretion (less inhibition)
Details: stimulus: HMGB1 5 ug/ml, 18 h
[1] = compound concentration: 1 ug/ml

CCCNC(C)C(=O)Nc1ccccc1C (centres undefined) [Prilocaine hydrochloride]
HMGB1-induced TNF-alpha production (compound concentration: 3 uM): 89.2 ± 21%

CCCNC(C)C(=O)Nc1ccccc1C (centres undefined)
HMGB1-induced TNF-alpha production (compound concentration: 3 uM): 81.8%

Nc1ncn([C@@H]2O[C@H](CO)[C@@H](O)[C@H]2O)c(=O)n1
HMGB1-induced TNF-alpha production (compound concentration: 3 uM): 249 ± 11%

Nc1ncn([C@@H]2O[C@H](CO)[C@@H](O)[C@H]2O)c(=O)n1 [5-azacytidine]
HMGB1-induced TNF-alpha production (compound concentration: 3 uM): 155%

CC(COc1ccccc1)N(CCCl)Cc1ccccc1 (centres undefined) [Phenoxybenzamine HCl]
HMGB1-induced TNF-alpha production (compound concentration: 3 uM): 84.8%

CC(COc1ccccc1)N(CCCl)Cc1ccccc1 (centres undefined)
HMGB1-induced TNF-alpha production (compound concentration: 3 uM): 84.4%

CC(COc1ccccc1)N(CCCl)Cc1ccccc1 (centres undefined) [Phenoxybenzamine hydrochloride]
HMGB1-induced TNF-alpha production (compound concentration: 3 uM): 91.6 ± 2.1%

CC(=O)c1ccc(S(=O)(=O)NC(=O)NC2CCCCC2)cc1
HMGB1-induced TNF-alpha production (compound concentration: 3 uM): 93%

CC(=O)c1ccc(S(=O)(=O)NC(=O)NC2CCCCC2)cc1 [Acetohexamide]
HMGB1-induced TNF-alpha production (compound concentration: 3 uM): 77.1 ± 4.4%

CCCCC[C@H](O)/C=C/[C@@H]1[C@@H](C/C=C\CCCC(=O)O)[C@@H](O)C[C@H]1O [Dinoprost]
HMGB1-induced TNF-alpha production (compound concentration: 3 uM): 104%

CCCCC[C@H](O)/C=C/[C@@H]1[C@@H](C/C=C\CCCC(=O)O)[C@@H](O)C[C@H]1O [Dinoprost trometamol]
HMGB1-induced TNF-alpha production (compound concentration: 3 uM): 79.1%

CCSC(=N)N [S-Ethylisothiourea hydrobromide]
HMGB1-induced TNF-alpha production (compound concentration: 3 uM): 70.3%

CCOC(=O)c1ccc(OC(=O)CCCCCNC(=N)N)cc1 [Gabexate mesilate]
HMGB1-induced TNF-alpha production (compound concentration: 3 uM): 88.8%

CCOC(=O)c1ccc(OC(=O)CCCCCNC(=N)N)cc1
HMGB1-induced TNF-alpha production (compound concentration: 3 uM): 100%

OC[C@H]1O[C@H]([S-])[C@H](O)[C@@H](O)[C@@H]1O.[Au+] [Aurothioglucose]
HMGB1-induced TNF-alpha production (compound concentration: 3 uM): 110%

OC[C@H]1O[C@H]([S-])[C@H](O)[C@@H](O)[C@@H]1O.[Au+]
HMGB1-induced TNF-alpha production (compound concentration: 3 uM): 93.2%

CCCN[C@H]1CCc2nc(N)sc2C1 [Pramipexole]
HMGB1-induced TNF-alpha production (compound concentration: 3 uM): 99.4 ± 12%

CCCN[C@H]1CCc2nc(N)sc2C1
HMGB1-induced TNF-alpha production (compound concentration: 3 uM): 100%

CCC(=O)N1CCN(C(=O)c2ccccc2)CC1
HMGB1-induced TNF-alpha production (compound concentration: 3 uM): 86.8%

CNC(=O)c1cc2c(cn1)[nH]c1ccccc12 [N-Methyl-beta-carboline-3-carboxamide]
HMGB1-induced TNF-alpha production (compound concentration: 3 uM): 81.8%

Cc1cc(=O)oc2cc(O)ccc12 [Hymecromone]
HMGB1-induced TNF-alpha production (compound concentration: 3 uM): 85.4%

CC(C)C[C@H](NC(=O)[C@@H](COC(C)(C)C)NC(=O)[C@H](Cc1ccc(O)cc1)NC(=O)[C@H](CO)NC(=O)[C@H](Cc1c[nH]c2ccccc12)NC(=O)[C@H](Cc1cnc[nH]1)NC(=O)[C@@H]1CCC(=O)N1)C(=O)N[C@@H](CCCNC(=N)N)C(=O)N1CCC[C@H]1C(=O)NNC(N)=O
HMGB1-induced TNF-alpha production (compound concentration: 3 uM): 93.5%

CC(C)C[C@H](NC(=O)[C@@H](COC(C)(C)C)NC(=O)[C@H](Cc1ccc(O)cc1)NC(=O)[C@H](CO)NC(=O)[C@H](Cc1c[nH]c2ccccc12)NC(=O)[C@H](Cc1cnc[nH]1)NC(=O)[C@@H]1CCC(=O)N1)C(=O)N[C@@H](CCCNC(=N)N)C(=O)N1CCC[C@H]1C(=O)NNC(N)=O [Goserelin]
HMGB1-induced TNF-alpha production (compound concentration: 3 uM): 81.1%

Cn1c(=O)c2nc[nH]c2n(C)c1=O
HMGB1-induced TNF-alpha production (compound concentration: 3 uM): 92.9%

Cn1c(=O)c2nc[nH]c2n(C)c1=O [Theophylline]
HMGB1-induced TNF-alpha production (compound concentration: 3 uM): 115%

Cn1c(=O)c2nc[nH]c2n(C)c1=O [Theophylline monohydrate]
HMGB1-induced TNF-alpha production (compound concentration: 3 uM): 123%

C=C1c2cccc(O)c2C(=O)C2=C(O)[C@]3(O)C(=O)C(C(N)=O)=C(O)[C@@H](N(C)C)[C@@H]3[C@@H](O)[C@H]12
HMGB1-induced TNF-alpha production (compound concentration: 3 uM): 103%

C=C1c2cccc(O)c2C(=O)C2=C(O)[C@]3(O)C(=O)C(C(N)=O)=C(O)[C@@H](N(C)C)[C@@H]3[C@@H](O)[C@H]12 [Methacycline hydrochloride]
HMGB1-induced TNF-alpha production (compound concentration: 3 uM): 94.1%

COc1cccc(-c2cc(=O)c3cc(O)ccc3o2)c1
HMGB1-induced TNF-alpha production [1]: 62.5%

c1ccc(C2CN3CCSC3=N2)cc1 (centres undefined) [Tetramisole hydrochloride]
HMGB1-induced TNF-alpha production (compound concentration: 3 uM): 79.9 ± 23%

c1ccc(C2CN3CCSC3=N2)cc1 (centres undefined)
HMGB1-induced TNF-alpha production (compound concentration: 3 uM): 93.9%

COc1cc2cc3c4cc(OC)c(OC)cc4cc[n+]3c(C)c2cc1OC
HMGB1-induced TNF-alpha production (compound concentration: 3 uM): 102%

CC(COc1ccc(/C=C/c2ccccc2)cc1)[N+](C)(C)C (centres undefined)
HMGB1-induced TNF-alpha production (compound concentration: 3 uM): 93.4%

CC[C@]1(O)C[C@@H]2CN(CCc3c([nH]c4ccccc34)[C@@](C(=O)OC)(c3cc4c(cc3OC)N(C)[C@H]3[C@@](O)(C(N)=O)[C@H](O)[C@]5(CC)C=CCN6CC[C@]43[C@@H]65)C2)C1 [Vindesine]
HMGB1-induced TNF-alpha production (compound concentration: 3 uM): 130%

CC[C@]1(O)C[C@@H]2CN(CCc3c([nH]c4ccccc34)[C@@](C(=O)OC)(c3cc4c(cc3OC)N(C)[C@H]3[C@@](O)(C(N)=O)[C@H](O)[C@]5(CC)C=CCN6CC[C@]43[C@@H]65)C2)C1
HMGB1-induced TNF-alpha production (compound concentration: 3 uM): 120%

O=C(N[C@@H](Cc1ccccc1)C(=O)CCl)OCc1ccccc1 [Z-L-Phe chloromethyl ketone]
HMGB1-induced TNF-alpha production (compound concentration: 3 uM): 19.6%

Cc1cc2c(cc1Cl)N(C(=O)Nc1ccc(Oc3cccnc3C)nc1)CC2
HMGB1-induced TNF-alpha production (compound concentration: 3 uM): 106%

Cc1scc2c1N(C(=O)CN1CCN(C)CC1)c1ccccc1NC2=O [Telenzepine dihydrochloride]
HMGB1-induced TNF-alpha production (compound concentration: 3 uM): 84.2 ± 20%

Cc1scc2c1N(C(=O)CN1CCN(C)CC1)c1ccccc1NC2=O [Telenzepine]
HMGB1-induced TNF-alpha production (compound concentration: 3 uM): 112%

Cc1scc2c1N(C(=O)CN1CCN(C)CC1)c1ccccc1NC2=O
HMGB1-induced TNF-alpha production (compound concentration: 3 uM): 79.4%

CSCC[C@H](N)C(=O)Nc1ccc2c(C)cc(=O)oc2c1 [L-Methionine 7-amido-4-methylcoumarin trifluoroacetate salt]
HMGB1-induced TNF-alpha production [1]: 70.6%

CN(C)CCC(c1ccc(Cl)cc1)c1ccccn1 (single isomer, unassigned; (+)) [(+)-Chlorpheniramine maleate]
HMGB1-induced TNF-alpha production (compound concentration: 3 uM): 74.7%

CO/N=C(\C(=O)N[C@@H]1C(=O)N2C(C(=O)O)=C(CSc3nc(=O)c(O)nn3C)CS[C@H]12)c1csc(N)n1 [Ceftriaxone sodium]
HMGB1-induced TNF-alpha production (compound concentration: 3 uM): 78.8%

CO/N=C(\C(=O)N[C@@H]1C(=O)N2C(C(=O)O)=C(CSc3nc(=O)c(O)nn3C)CS[C@H]12)c1csc(N)n1
HMGB1-induced TNF-alpha production (compound concentration: 3 uM): 97.8%

Oc1ccccc1O [Pyrocatechol]
HMGB1-induced TNF-alpha production (compound concentration: 3 uM): 84.6%

COc1cccc(NC(=O)/C=C/c2ccc(Cl)cc2)c1
HMGB1-induced TNF-alpha production (compound concentration: 3 uM): 95.8%

COc1cccc(-c2oc3ccccc3c(=O)c2O)c1
HMGB1-induced TNF-alpha production [1]: 76.8%

FC(F)(F)c1ccccc1-n1ccnc1 [1-[2-(Trifluoromethyl)phenyl]imidazole]
HMGB1-induced TNF-alpha production (compound concentration: 3 uM): 94%

COc1ccc(CCN(C)CCCC(C#N)(c2cc(OC)c(OC)c(OC)c2)C(C)C)cc1OC (racemic) [(±)-Methoxyverapamil hydrochloride]
HMGB1-induced TNF-alpha production (compound concentration: 3 uM): 115%
